{"source": "PubChem BioAssay AID2685", "about": "(National Center for Advancing Translational Sciences (NCATS), 2010)", "assay": "qHTS Assay for Lipid Storage Modulators in Drosophila S3 Cells;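 as to cell number change: cells counted by Cell Tracker Red CMTPX staining in the red channel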", "conditions": "BODIPY lipid droplet fluorescence, 18-24 h; for cell number change: measured here: cell count max response, cells fed with added oleic acid", "method_in_brief": "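Drosophila S3 cells got compounds at several concentrations plus oleic acid (400 uM solution). Laser-scanning cytometry with 488 nm excitation read lipid droplets at 500-530 nm and cells at 575-640 nm. Percent activity was relative to 20 uM Triacsin C.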", "key": {"[1]": {"conditions": "measured here: lipid fluorescence (Fed channel) AC50, cells fed with added oleic acid"}, "[2]": {"conditions": "measured here: cell number channel AC50, cells fed with added oleic acid"}}, "note": "This is one part of the list. Further columns of the screen follow, without active or inactive calls. Most of these compounds were active or inconclusive in the main read-out, so they are no random draw. Words in brackets tell the shape of the fitted curve; partial curves, single points and poor fits give uncertain potencies.", "data": [{"molecule": "O=C(O)c1c(C(=O)O)c(-c2ccc(F)cc2)n2c1CCC2", "values": [{"measurement": "cell number change", "result": -19.3, "unit": "%"}, {"measurement": "AC50", "setting": "[1]", "result": "20.6 µM [falling, single point]"}]}, {"molecule": "Cc1ccc(N(CC(=O)Nc2cc(C)ccc2C)S(C)(=O)=O)cc1", "values": [{"measurement": "cell number change", "result": 4.4, "unit": "%"}, {"measurement": "AC50", "setting": "[1]", "result": "6.51 µM [rising, single point]"}]}, {"molecule": "CC(C(=O)O)N1C(=O)c2ccccc2C1=O", "note": "(configuration not stated)", "values": [{"measurement": "cell number change", "result": 10.8, "unit": "%"}, {"measurement": "AC50", "setting": "[1]", "result": "0.146 µM [rising, full curve, poor fit]"}]}, {"molecule": "CCn1nc(C)c(CN2CCc3c([nH]c4ccccc34)C2c2ccc(F)c(OC)c2)c1C", "note": "(configuration not stated)", "values": [{"measurement": "cell number change", "result": 15.2, "unit": "%"}, {"measurement": "AC50", "setting": "[1]", "result": "0.259 µM [rising, full curve, poor fit]"}]}, {"molecule": "CN(Cc1ccccc1)S(=O)(=O)c1ccc2c(c1)OCCO2", "values": [{"measurement": "cell number change", "result": 1.06, "unit": "%"}, {"measurement": "AC50", "setting": "[1]", "result": "25.9 µM [rising, partial curve, poor fit]"}]}, {"molecule": "N#C[C@@H]1N(Cc2ccccc2)C(=O)[C@H]2CC3C=CC21O3", "note": "(some centres not stated)", "values": [{"measurement": "cell number change", "result": -8.96, "unit": "%"}, {"measurement": "AC50", "setting": "[1]", "result": "2.59 µM [rising, full curve, poor fit]"}]}, {"molecule": "COc1cccc(/C=C2\\N=C3CCCCCN3C2=O)c1", "values": [{"measurement": "cell number change", "result": 15.6, "unit": "%"}, {"measurement": "AC50", "setting": "[1]", "result": "6.51 µM [rising, single point]"}]}, {"molecule": "COC(=O)CCCC1=CC2=CC(=O)C(C)(OC(=O)CCc3ccccc3)C(=O)C2=CO1", "note": "(configuration not stated)", "values": [{"measurement": "cell number change", "result": 2.98, "unit": "%"}, {"measurement": "AC50", "setting": "[1]", "result": "6.51 µM [rising, single point]"}]}, {"molecule": "CCOC(=O)N1CCC(n2c(SCC(=O)OCc3ccccc3)nc3ccsc3c2=O)CC1", "values": [{"measurement": "cell number change", "result": 1.6, "unit": "%"}, {"measurement": "AC50", "setting": "[1]", "result": "1.84 µM [rising, partial curve]"}]}, {"molecule": "CCCNC(=O)Nc1ccc2c(c1)N(C)C(=O)c1ccccc1S2", "values": [{"measurement": "cell number change", "result": 23, "unit": "%"}, {"measurement": "AC50", "setting": "[2]", "result": "0.731 µM [falling, full curve, poor fit]"}, {"measurement": "AC50", "setting": "[1]", "result": "16.4 µM [falling, partial curve]"}]}, {"molecule": "O=C(CN1CCN(S(=O)(=O)c2ccc(F)c(F)c2)CC1)Nc1ccccc1C(=O)NC1CC1", "values": [{"measurement": "cell number change", "result": 5.19, "unit": "%"}]}, {"molecule": "CCn1c(SCC(=O)c2ccccc2)nc2sc3c(c2c1=O)CCN(C)C3", "values": [{"measurement": "AC50", "setting": "[1]", "result": "0.103 µM [rising, full curve, poor fit]"}]}, {"molecule": "CCOC(=O)C1CCN(C(=O)c2ccc3c(c2)NC(=O)/C(=C\\c2cccc(C)c2)S3)CC1", "values": [{"measurement": "cell number change", "result": -25.1, "unit": "%"}, {"measurement": "AC50", "setting": "[1]", "result": "2.91 µM [falling, partial curve]"}]}, {"molecule": "Cc1cccc(NS(=O)(=O)c2ccc(C)c(C(=O)N(C)C)c2)c1", "values": [{"measurement": "cell number change", "result": -1.18, "unit": "%"}, {"measurement": "AC50", "setting": "[1]", "result": "13 µM [rising, partial curve]"}]}, {"molecule": "COc1ccccc1C(CC(=O)Nc1ccc(Cl)cc1)c1ccc(OC(C)C)cc1", "note": "(configuration not stated)", "values": [{"measurement": "cell number change", "result": 32.7, "unit": "%"}, {"measurement": "AC50", "setting": "[2]", "result": "2.31 µM [rising, full curve]"}]}, {"molecule": "CCN1CCN(C2=C(NS(=O)(=O)c3ccccc3)C(=O)c3ccccc3C2=O)CC1", "values": [{"measurement": "cell number change", "result": -10.1, "unit": "%"}]}, {"molecule": "Fc1ccc(Nc2nc(Oc3ccc4c(c3)OCO4)nc(N3CCOCC3)n2)c(F)c1", "values": [{"measurement": "cell number change", "result": 4, "unit": "%"}, {"measurement": "AC50", "setting": "[1]", "result": "2.31 µM [rising, single point]"}]}, {"molecule": "COc1ccc(/C(C)=N/Nc2ccc(C(=O)O)cc2)c(OC)c1", "values": [{"measurement": "cell number change", "result": 50, "unit": "%"}, {"measurement": "AC50", "setting": "[2]", "result": "20.6 µM [rising, single point]"}]}, {"molecule": "CCCOc1ccc(N2C(=O)CC(N(CCCO)C(=O)CC)C2=O)cc1", "note": "(configuration not stated)", "values": [{"measurement": "cell number change", "result": 4.16, "unit": "%"}]}, {"molecule": "Cc1ccc(NS(=O)(=O)c2ccc(Br)s2)nc1", "values": [{"measurement": "cell number change", "result": -11.3, "unit": "%"}]}, {"molecule": "COc1ccccc1C(=O)Nc1c(C)cc(Br)cc1C", "values": [{"measurement": "cell number change", "result": 20.4, "unit": "%"}, {"measurement": "AC50", "setting": "[1]", "result": "35.5 µM [rising, single point]"}]}, {"molecule": "CC(=O)c1c(C)[nH]c(C(=O)Nc2cccc(C#N)c2)c1C", "values": [{"measurement": "cell number change", "result": 10.9, "unit": "%"}, {"measurement": "AC50", "setting": "[1]", "result": "14.6 µM [falling, single point]"}]}, {"molecule": "CC(C)(C)C1CCC(C(=O)OCC(=O)Nc2ccc3[nH]c(=O)[nH]c3c2)CC1", "note": "(configuration not stated)", "values": [{"measurement": "cell number change", "result": 119, "unit": "%"}, {"measurement": "AC50", "setting": "[2]", "result": "20.6 µM [rising, partial curve]"}, {"measurement": "AC50", "setting": "[1]", "result": "1.3 µM [rising, partial curve]"}]}, {"molecule": "CC1=N/C(=C/c2ccc([N+](=O)[O-])cc2)C(=O)N1c1ccc(Cl)cc1Cl", "values": [{"measurement": "AC50", "setting": "[1]", "result": "0.13 µM [rising, full curve, poor fit]"}]}, {"molecule": "COCc1ccc(C(=O)NC2CCCc3c2cnn3-c2cc(C)cc(C)c2)s1", "note": "(configuration not stated)", "values": [{"measurement": "cell number change", "result": -53.4, "unit": "%"}, {"measurement": "AC50", "setting": "[2]", "result": "0.164 µM [falling, full curve]"}, {"measurement": "AC50", "setting": "[1]", "result": "0.0651 µM [falling, full curve]"}]}, {"molecule": "COc1ccccc1C(=O)NCC(c1ccco1)N1CCc2ccccc21", "note": "(configuration not stated)", "values": [{"measurement": "cell number change", "result": 18.3, "unit": "%"}]}, {"molecule": "COc1ccc(OC)c(CNC(=O)c2ccc(C)c(NC(=O)C3=C(C)OCCS3)c2)c1", "values": [{"measurement": "AC50", "setting": "[1]", "result": "0.58 µM [falling, single point]"}]}, {"molecule": "O=C(CSc1nnc(COc2ccccc2)o1)N1CCCCC1", "values": [{"measurement": "cell number change", "result": 10.5, "unit": "%"}]}, {"molecule": "Cc1ccc2c(c1)c1c(n2CCc2ccc(C)nc2)CCN(C)C1", "values": [{"measurement": "cell number change", "result": -1.78, "unit": "%"}, {"measurement": "AC50", "setting": "[1]", "result": "6.51 µM [rising, single point]"}]}, {"molecule": "c1ccc(Cc2nc(-c3ccccn3)no2)cc1", "values": [{"measurement": "cell number change", "result": -25.6, "unit": "%"}]}, {"molecule": "COC(=O)C1=C(C)NC(C)=C(C(=O)OC)C1c1cc2ccc(C)cc2[nH]c1=O", "values": [{"measurement": "cell number change", "result": -11.9, "unit": "%"}]}, {"molecule": "Cc1cc(-c2nnc3n2N=C(C(C)(C)C)CS3)n[nH]1", "values": [{"measurement": "cell number change", "result": -3.59, "unit": "%"}, {"measurement": "AC50", "setting": "[1]", "result": "3.66 µM [falling, single point]"}]}, {"molecule": "O=C(Nc1nccs1)c1cc2c(s1)CCCCC2", "values": [{"measurement": "cell number change", "result": -9.22, "unit": "%"}, {"measurement": "AC50", "setting": "[1]", "result": "7.31 µM [rising, single point]"}]}, {"molecule": "Cc1c(CCOC(=O)CC23CC4CC(CC(C)(C4)C2)C3)sc[n+]1Cc1ccc([N+](=O)[O-])cc1", "values": [{"measurement": "cell number change", "result": -43.7, "unit": "%"}, {"measurement": "AC50", "setting": "[2]", "result": "18.4 µM [falling, single point]"}, {"measurement": "AC50", "setting": "[1]", "result": "18.4 µM [falling, partial curve]"}]}, {"molecule": "Cc1ccc(NC(=O)c2cc(CC(C)C)nc3ccccc23)cc1", "values": [{"measurement": "cell number change", "result": 18, "unit": "%"}, {"measurement": "AC50", "setting": "[1]", "result": "0.651 µM [rising, full curve]"}]}, {"molecule": "Cc1onc(-c2ccccc2Cl)c1C(=O)N1CCN(c2ncccn2)CC1", "values": [{"measurement": "cell number change", "result": 5.97, "unit": "%"}, {"measurement": "AC50", "setting": "[1]", "result": "0.146 µM [falling, full curve, poor fit]"}]}, {"molecule": "CC(=O)Nc1ccc(S(=O)(=O)Oc2ccc(/C=N/NC(=O)c3ccc(Cl)cc3)cc2)cc1", "values": [{"measurement": "cell number change", "result": -21.7, "unit": "%"}, {"measurement": "AC50", "setting": "[1]", "result": "18.4 µM [falling, single point]"}]}, {"molecule": "COc1ccc(NC(=O)CN(c2ccc([N+](=O)[O-])cc2)S(=O)(=O)c2ccccc2)cc1", "values": [{"measurement": "cell number change", "result": -40.3, "unit": "%"}, {"measurement": "AC50", "setting": "[2]", "result": "4.61 µM [falling, full curve, poor fit]"}]}, {"molecule": "CCc1cc(=O)oc2cc(C)cc(OC(C)C(=O)NCCCn3ccnc3)c12", "note": "(configuration not stated)", "values": [{"measurement": "cell number change", "result": 12.9, "unit": "%"}, {"measurement": "AC50", "setting": "[1]", "result": "0.731 µM [falling, partial curve, poor fit]"}]}, {"molecule": "CCN(CC)C(=O)COCc1cc(-c2ccc3c(c2)OCO3)on1", "values": [{"measurement": "AC50", "setting": "[1]", "result": "6.51 µM [rising, single point]"}]}]}
